This passage reports binding results from paper PMC4792956.

Chains of the proteins cited; added tags and fusions are not shown.
UniProt Q9V3Z6: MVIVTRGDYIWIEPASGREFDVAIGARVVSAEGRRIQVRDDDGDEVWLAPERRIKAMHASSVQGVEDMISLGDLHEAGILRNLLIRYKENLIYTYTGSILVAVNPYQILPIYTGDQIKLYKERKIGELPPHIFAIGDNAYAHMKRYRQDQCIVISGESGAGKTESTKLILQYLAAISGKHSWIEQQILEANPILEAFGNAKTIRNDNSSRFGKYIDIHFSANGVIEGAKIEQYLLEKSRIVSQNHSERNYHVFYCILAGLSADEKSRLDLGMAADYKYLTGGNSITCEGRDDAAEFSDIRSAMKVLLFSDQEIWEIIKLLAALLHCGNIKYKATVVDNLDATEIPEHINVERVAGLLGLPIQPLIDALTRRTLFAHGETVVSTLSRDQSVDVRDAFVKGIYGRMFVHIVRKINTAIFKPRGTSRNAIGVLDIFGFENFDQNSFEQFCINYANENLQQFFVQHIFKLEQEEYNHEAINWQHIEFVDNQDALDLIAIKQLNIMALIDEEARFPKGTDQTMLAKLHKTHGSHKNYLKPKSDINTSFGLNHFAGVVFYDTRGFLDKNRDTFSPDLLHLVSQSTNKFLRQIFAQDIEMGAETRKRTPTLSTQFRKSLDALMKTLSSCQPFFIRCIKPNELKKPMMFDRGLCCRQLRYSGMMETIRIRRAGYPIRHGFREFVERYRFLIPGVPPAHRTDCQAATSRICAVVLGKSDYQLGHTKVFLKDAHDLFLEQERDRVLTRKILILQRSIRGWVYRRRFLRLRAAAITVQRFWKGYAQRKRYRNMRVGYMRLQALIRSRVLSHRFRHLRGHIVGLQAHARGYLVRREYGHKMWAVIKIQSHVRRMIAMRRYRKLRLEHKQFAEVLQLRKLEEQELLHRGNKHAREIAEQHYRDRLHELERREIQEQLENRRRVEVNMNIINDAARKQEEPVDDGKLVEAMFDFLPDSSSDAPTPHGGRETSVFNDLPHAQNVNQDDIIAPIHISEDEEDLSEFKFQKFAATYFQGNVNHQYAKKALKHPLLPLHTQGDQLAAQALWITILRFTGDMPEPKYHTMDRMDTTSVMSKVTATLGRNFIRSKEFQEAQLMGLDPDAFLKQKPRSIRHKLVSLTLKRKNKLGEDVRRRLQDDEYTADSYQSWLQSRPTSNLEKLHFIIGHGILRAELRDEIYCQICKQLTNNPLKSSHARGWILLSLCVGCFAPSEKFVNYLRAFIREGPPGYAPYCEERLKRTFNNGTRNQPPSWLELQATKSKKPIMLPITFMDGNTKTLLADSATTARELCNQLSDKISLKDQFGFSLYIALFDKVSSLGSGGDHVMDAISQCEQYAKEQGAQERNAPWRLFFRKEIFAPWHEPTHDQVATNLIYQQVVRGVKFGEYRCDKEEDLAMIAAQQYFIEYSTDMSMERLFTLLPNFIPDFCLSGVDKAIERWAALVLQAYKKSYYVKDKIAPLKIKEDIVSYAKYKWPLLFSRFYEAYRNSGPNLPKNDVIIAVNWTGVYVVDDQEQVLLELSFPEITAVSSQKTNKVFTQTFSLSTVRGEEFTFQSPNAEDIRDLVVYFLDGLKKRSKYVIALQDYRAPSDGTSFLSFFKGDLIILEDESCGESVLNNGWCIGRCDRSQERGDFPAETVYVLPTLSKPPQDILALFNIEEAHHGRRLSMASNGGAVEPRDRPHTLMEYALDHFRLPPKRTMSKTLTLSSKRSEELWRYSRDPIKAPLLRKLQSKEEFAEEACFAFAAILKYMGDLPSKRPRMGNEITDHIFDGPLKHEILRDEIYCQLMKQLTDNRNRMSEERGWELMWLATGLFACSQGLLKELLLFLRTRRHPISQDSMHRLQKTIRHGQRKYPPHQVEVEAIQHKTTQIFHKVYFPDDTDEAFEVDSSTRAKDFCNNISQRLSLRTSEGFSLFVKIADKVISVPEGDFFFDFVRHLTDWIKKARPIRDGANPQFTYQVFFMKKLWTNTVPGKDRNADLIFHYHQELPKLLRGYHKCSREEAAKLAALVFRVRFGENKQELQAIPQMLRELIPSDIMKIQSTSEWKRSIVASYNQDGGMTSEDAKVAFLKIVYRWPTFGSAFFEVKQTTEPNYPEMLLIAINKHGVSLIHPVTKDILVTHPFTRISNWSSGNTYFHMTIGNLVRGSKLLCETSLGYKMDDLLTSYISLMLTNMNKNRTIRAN

One assay addresses T1, HA3x-tagged KENNY (UniProt Q9GYV5).
T1 sequence: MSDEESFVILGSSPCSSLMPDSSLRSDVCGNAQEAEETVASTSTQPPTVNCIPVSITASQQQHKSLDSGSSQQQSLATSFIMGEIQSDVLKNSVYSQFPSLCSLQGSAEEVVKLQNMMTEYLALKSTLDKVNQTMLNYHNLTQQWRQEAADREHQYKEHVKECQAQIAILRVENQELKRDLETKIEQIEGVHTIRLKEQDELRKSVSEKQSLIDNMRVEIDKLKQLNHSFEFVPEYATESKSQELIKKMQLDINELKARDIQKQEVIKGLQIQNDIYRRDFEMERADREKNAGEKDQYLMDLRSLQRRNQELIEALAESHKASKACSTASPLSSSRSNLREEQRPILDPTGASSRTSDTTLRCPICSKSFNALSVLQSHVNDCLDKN
Description: affinity purification with mass spectrometry; HA3x-tagged baits stably expressed in Drosophila S2 cells; large-scale affinity purification on α-HA resin, mass spectrometric analysis; minimum score of two unique peptides.

The next assay deals with T2, HA3x-tagged DREDD (UniProt Q8IRY7).
T2 sequence: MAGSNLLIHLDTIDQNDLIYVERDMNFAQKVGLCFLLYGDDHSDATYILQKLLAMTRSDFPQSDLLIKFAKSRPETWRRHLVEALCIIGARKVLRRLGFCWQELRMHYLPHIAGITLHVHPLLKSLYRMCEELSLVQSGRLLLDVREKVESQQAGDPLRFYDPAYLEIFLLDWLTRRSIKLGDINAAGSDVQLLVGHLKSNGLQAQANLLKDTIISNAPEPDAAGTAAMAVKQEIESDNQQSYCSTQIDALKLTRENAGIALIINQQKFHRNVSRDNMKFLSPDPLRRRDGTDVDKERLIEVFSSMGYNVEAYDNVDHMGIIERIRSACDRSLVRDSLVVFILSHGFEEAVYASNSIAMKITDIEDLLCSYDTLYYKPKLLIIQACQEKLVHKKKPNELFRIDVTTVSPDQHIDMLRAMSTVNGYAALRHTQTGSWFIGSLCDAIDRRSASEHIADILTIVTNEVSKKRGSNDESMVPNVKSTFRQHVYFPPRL
The description is as above.

Results are given in words; binding and its absence hold for the method and conditions named. Binding seen in cells or lysates may run through a third protein. A yes stands for co-enrichment or nearness to the bait. Other partners may have been found. A no says only that the protein was not detected with the bait. Sequences can lack the tags named with a protein.

In the case of “CRINKLED (CK), endogenous in S2 cells (from UniProt Q9V3Z6 1-2167)”, the binding entry in the assay with HA3x-tagged KENNY and with HA3x-tagged DREDD was “no binding” throughout.
